The list shows a part of the results.
Assays:
Assay in all cases: log2 fold change, soluble protein after heating vs DMSO (PISA); higher = thermal stabilisation; K562 lysate, 10 uM; active = over 0.2 and 3.5 SD of the protein, either way, in both replicates (recomputed)
[1] = compound: C=CC(=O)N1CCC[C@@H](n2nc(-c3ccc(Oc4ccccc4)cc3)c3c(N)ncnc32)C1 [ibrutinib]
In short: (§1)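 Pellets of K562 cells were dounce-homogenised in PBS pH 7.4 with 1 mM MgCl2, and the crude extract was held at 1 mg/mL protein for a 30 min treatment with 10 μM compound. Aliquots were heated for 3 min over 48°C-58°C and pooled before NP-40 was added to 0.5% at 4°C. The supernatant from 21,000xg for 90 min was quantified by TMTpro 16plex LC-MS/MS with channel sums equalised. Values are reported from duplicates as log-two fold change in thermal stability relative to solvent controls.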

Sequences of proteins named here, by UniProt entry; tags and fusion partners are left off. A change or cut given only in a name is not applied to a line headed by its entry.
UniProt Q14766: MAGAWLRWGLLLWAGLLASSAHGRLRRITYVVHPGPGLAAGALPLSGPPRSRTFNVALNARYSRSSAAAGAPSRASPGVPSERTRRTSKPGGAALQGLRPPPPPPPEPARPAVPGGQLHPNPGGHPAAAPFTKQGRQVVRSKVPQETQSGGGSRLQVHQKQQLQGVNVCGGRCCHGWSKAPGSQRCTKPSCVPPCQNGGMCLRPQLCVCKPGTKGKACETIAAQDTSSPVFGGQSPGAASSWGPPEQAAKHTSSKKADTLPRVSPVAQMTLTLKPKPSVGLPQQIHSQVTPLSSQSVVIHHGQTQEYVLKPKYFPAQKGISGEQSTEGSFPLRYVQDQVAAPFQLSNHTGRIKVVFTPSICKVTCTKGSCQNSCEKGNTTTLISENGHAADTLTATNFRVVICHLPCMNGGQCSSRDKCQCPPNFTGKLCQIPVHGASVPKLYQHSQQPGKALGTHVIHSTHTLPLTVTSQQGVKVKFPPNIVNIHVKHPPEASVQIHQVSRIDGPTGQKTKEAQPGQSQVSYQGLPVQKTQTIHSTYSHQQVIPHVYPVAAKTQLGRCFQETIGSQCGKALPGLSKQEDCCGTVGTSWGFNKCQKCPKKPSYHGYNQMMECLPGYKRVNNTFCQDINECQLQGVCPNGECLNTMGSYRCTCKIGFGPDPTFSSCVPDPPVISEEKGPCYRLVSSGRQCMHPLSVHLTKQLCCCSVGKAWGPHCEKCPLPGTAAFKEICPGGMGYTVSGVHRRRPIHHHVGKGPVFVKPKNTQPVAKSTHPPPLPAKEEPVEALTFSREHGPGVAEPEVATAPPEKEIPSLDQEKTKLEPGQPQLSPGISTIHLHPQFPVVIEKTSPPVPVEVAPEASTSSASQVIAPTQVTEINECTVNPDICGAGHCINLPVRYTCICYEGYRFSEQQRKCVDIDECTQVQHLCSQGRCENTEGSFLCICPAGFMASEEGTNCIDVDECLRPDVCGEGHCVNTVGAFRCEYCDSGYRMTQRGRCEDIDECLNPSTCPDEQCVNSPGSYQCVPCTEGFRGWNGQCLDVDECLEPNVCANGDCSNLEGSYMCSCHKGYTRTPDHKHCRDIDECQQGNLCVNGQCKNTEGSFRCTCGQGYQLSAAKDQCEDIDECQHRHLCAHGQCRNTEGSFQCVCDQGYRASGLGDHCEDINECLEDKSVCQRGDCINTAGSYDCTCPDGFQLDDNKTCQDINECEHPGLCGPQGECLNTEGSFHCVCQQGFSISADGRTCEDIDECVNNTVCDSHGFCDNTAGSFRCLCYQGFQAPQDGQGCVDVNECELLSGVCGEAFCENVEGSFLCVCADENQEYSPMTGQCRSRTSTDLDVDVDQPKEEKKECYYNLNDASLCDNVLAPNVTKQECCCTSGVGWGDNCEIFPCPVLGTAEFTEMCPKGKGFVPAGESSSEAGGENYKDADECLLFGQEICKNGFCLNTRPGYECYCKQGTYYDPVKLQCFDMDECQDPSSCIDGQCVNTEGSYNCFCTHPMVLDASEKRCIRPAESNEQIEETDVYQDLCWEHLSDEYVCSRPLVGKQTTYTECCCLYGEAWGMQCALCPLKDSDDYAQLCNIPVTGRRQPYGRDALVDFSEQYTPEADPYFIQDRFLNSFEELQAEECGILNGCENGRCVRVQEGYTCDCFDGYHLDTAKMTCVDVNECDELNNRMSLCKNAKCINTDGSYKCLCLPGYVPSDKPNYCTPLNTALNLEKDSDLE
UniProt P21397, whole entry, looked up: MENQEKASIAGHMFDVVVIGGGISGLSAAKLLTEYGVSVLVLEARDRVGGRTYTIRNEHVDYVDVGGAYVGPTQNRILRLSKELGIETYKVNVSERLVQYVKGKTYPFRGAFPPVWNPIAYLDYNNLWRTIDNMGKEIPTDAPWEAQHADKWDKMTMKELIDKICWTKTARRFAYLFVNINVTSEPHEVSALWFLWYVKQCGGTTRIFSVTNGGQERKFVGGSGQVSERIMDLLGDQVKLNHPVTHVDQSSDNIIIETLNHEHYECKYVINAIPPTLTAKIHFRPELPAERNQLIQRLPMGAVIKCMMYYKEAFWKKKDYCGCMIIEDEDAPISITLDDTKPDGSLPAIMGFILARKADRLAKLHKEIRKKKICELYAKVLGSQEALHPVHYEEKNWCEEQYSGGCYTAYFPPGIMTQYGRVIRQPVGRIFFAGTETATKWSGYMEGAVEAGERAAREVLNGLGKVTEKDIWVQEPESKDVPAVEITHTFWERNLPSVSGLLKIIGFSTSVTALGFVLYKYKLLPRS
UniProt P12980: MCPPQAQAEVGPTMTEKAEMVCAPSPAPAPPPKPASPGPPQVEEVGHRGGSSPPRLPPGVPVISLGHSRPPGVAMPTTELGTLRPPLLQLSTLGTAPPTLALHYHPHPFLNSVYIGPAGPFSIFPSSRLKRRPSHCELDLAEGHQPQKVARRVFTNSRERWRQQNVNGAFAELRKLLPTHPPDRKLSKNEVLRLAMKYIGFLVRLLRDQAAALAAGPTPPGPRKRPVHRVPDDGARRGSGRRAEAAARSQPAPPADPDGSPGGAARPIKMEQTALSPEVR
UniProt P41279, whole entry, looked up: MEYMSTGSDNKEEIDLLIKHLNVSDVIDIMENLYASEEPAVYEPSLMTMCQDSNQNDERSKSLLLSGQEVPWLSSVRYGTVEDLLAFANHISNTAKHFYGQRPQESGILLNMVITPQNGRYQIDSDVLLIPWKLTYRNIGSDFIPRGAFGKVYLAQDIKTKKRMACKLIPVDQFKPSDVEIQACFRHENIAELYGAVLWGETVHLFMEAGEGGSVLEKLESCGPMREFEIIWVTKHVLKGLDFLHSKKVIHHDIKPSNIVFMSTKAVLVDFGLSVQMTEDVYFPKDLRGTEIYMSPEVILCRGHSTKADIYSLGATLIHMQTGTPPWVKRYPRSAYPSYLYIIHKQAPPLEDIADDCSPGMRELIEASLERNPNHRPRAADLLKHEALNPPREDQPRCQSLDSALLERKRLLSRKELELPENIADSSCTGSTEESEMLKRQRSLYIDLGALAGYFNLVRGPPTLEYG
UniProt P43357, whole entry, looked up: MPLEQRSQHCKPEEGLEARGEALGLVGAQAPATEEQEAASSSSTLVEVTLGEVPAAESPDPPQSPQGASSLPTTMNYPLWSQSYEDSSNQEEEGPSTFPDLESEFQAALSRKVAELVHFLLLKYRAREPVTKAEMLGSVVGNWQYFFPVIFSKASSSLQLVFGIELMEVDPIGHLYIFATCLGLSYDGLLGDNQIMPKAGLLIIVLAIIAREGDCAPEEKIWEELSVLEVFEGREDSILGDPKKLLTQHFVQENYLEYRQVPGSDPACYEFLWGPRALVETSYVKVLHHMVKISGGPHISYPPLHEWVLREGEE
UniProt Q9HAY2: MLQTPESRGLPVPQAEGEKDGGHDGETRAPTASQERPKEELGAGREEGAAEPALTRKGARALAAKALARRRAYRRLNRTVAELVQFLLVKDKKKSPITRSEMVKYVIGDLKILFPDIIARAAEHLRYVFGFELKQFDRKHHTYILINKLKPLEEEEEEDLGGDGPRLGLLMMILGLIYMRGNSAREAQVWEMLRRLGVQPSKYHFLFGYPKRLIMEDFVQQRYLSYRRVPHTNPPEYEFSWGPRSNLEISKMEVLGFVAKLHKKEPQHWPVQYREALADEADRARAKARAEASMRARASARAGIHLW
UniProt Q14210: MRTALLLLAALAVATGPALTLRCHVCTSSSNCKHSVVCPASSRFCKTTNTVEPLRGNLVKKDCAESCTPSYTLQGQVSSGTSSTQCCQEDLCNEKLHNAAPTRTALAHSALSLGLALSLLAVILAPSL
UniProt Q9Y6R4: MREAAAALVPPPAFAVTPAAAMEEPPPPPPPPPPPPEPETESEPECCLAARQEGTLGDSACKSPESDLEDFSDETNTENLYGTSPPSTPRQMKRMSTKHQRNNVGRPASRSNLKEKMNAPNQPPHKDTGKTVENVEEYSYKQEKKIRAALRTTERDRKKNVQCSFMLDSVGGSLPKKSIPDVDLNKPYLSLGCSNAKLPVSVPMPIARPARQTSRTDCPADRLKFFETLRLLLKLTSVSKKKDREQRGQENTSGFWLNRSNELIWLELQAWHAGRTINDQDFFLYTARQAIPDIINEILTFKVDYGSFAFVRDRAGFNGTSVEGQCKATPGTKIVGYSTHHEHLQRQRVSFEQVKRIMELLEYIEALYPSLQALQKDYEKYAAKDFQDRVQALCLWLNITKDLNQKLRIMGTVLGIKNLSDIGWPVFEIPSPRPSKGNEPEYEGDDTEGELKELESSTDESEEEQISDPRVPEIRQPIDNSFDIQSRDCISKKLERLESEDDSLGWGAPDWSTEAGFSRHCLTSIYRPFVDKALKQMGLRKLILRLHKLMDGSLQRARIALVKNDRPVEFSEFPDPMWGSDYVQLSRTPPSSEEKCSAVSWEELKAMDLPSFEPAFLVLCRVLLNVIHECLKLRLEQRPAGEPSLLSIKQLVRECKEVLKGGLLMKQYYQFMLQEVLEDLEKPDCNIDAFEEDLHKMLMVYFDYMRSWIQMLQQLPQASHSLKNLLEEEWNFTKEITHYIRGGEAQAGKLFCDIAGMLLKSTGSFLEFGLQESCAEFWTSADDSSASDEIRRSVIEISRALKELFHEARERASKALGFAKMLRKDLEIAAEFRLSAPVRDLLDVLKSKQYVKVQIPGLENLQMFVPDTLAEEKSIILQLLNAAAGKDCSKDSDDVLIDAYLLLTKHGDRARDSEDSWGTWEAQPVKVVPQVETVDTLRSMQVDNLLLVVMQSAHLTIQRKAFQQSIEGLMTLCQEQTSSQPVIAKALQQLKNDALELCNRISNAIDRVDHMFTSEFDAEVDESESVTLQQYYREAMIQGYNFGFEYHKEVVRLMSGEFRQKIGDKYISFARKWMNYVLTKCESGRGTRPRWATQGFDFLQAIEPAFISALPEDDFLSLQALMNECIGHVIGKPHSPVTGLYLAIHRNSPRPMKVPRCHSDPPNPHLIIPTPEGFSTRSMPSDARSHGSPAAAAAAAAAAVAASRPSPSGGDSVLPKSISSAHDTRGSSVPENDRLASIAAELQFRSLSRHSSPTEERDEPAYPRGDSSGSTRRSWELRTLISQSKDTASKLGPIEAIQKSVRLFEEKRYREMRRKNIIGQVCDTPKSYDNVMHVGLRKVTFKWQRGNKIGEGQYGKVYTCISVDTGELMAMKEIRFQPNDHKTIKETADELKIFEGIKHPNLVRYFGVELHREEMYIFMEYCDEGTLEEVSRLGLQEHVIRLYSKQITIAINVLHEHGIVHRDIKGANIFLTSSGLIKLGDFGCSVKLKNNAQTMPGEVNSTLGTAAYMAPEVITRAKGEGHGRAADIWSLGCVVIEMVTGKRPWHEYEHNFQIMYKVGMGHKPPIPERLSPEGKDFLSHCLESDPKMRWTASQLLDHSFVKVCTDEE
UniProt P43365, whole entry, looked up: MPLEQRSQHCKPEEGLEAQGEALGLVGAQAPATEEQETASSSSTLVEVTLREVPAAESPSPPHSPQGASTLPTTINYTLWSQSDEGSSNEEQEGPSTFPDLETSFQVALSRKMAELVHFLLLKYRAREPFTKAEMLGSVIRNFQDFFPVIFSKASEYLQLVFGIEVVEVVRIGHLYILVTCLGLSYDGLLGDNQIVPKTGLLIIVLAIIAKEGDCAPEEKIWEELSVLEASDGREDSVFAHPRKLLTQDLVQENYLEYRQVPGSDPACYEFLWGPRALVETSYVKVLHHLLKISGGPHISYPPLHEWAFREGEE
UniProt P10636, whole entry, looked up: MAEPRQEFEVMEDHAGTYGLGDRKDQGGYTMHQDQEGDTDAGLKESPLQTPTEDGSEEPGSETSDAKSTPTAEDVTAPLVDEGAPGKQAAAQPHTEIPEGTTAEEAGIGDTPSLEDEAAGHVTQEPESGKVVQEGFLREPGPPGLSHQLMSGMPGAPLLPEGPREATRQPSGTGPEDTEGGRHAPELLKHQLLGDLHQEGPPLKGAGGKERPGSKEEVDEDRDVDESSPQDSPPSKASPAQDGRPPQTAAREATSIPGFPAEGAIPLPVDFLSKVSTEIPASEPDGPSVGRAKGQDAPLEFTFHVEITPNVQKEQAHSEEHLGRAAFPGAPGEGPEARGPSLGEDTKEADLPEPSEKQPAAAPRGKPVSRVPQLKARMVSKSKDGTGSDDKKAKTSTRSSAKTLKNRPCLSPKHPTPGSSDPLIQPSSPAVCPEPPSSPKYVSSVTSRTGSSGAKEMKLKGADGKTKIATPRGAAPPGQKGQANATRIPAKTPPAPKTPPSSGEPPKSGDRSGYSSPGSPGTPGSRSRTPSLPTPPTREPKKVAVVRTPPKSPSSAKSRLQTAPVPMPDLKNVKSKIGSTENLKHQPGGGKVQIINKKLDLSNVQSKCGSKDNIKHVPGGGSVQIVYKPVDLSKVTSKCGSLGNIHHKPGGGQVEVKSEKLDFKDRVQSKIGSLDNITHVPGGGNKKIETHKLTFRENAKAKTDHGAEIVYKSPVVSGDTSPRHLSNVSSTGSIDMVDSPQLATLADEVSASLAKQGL

[2] = compound: CC(C)C1=C2N=C(C=C(N2N=C1)NCC3=CC=CC=C3)NCCCCCCN
In short: as §1

[3] = compound: CC1=C(C(CC(=O)N1)C2=CC=C(C=C2)C(F)(F)F)C(=O)NC3=C(C=C4C(=C3)C=NN4)F
In short: as §1

[4] = compound: CC1=C(C2=C(C=C1)C(=O)C3=CC=CC=C3N2CCCN)C
In short: as §1

[5] = compound: CCN(CCCOc1ccc2c(Nc3cc(CC(=O)Nc4cccc(F)c4)[nH]n3)ncnc2c1)CCOP(=O)(O)O [barasertib]
In short: as §1

[6] = compound: CC[C@@H]1C(=O)N(C)c2cnc(Nc3ccc(C(=O)NC4CCN(C)CC4)cc3OC)nc2N1C1CCCC1
In short: as §1

[7] = compound: CCn1cc(-c2ccnc3[nH]c(-c4cccc(CN(C)C)c4)cc23)c(-c2ccc(NC(=O)N(C)C)cc2)n1
In short: as §1

[8] = compound: CN1CCC(CNc2ccc3ncc(-c4cccc(OC(F)(F)F)c4)n3n2)CC1
In short: as §1

[9] = compound: CN1CCN(CCOc2cc(OC3CCOCC3)c3c(Nc4c(Cl)ccc5c4OCO5)ncnc3c2)CC1 [saracatinib]
In short: as §1

[10] = compound: CC1=C(C=C(C=C1)NC(=O)C2=CC(=CC=C2)C(C)(C)C#N)NC3=CC4=C(C=C3)N=CN(C4=O)C
In short: as §1

[11] = compound: CN1CCN(c2nc(C3=C(c4c[nH]c5ccccc45)C(=O)NC3=O)c3ccccc3n2)CC1 [sotrastaurin]
In short: as §1

[12] = compound: CCCS(=O)(=O)Nc1ccc(F)c(C(=O)c2c[nH]c3ncc(-c4ccc(Cl)cc4)cc23)c1F [vemurafenib]
In short: as §1

[13] = compound: CC(=O)c1cnc2ccc(-c3cc(Cl)c(O)c(Cl)c3)nc2c1N[C@H]1CC[C@H](CN(C)C)CC1
In short: as §1

[14] = compound: CC(C)(C)Cn1c(N)nc2ccc(-c3[nH]c(C(C)(C)C)nc3-c3ccc(F)cc3)nc21 [ralimetinib]
In short: as §1

[15] = compound: CC(C)(O)CC(=O)NCCn1ccc2ncnc(Nc3ccc(Oc4cccc(C(F)(F)F)c4)c(Cl)c3)c21
In short: as §1

[16] = compound: CC1=C(C=C(C=C1)NC(=O)C2=CC(=CC=C2)N(C)C)NC(=O)C3=CC=C(C=C3)O
In short: as §1

[17] = compound: CC1=CC=C(C=C1)SC2=C3C=C(SC3=CN=C2)C(=O)N
In short: as §1

[18] = compound: CCCS(=O)(=O)Nc1ccc(F)c(C(=O)c2c[nH]c3ncc(Cl)cc23)c1F
In short: as §1

[19] = compound: CC[C@@H]1C(=O)N(C)c2cnc(Nc3ccc(C(=O)N[C@H]4CC[C@H](N5CCN(CC6CC6)CC5)CC4)cc3OC)nc2N1C(C)C [volasertib]
In short: as §1

[20] = compound: CCn1c(C(=O)N(C2CC2)C2CC2)cc2c3c(ncn3C)c(Nc3cc(C)n(C)n3)nc21
In short: as §1

Measured: log2 fold change

LTBP1 isoform 4 (UniProt Q14766)
inactive: [1] -0.08 | [2] -0.116 | [3] 0.111 | [4] -0.154 | [5] 0.071 | [6] 0.033 | [7] 0.054 | [8] 0.148 | [9] -0.12

MAOA (UniProt P21397)
inactive: [4] -1.19 | [9] -1.22

LYL1 (UniProt P12980)
inactive: [1] 0.037 | [2] 0.106 | [10] -0.055 | [5] -0.032 | [7] 0.078 | [8] 0.028 | [11] 0.105

MAP3K8 (UniProt P41279)
inactive: [1] -0.086 | [4] -0.072 | [5] 0.002 | [7] -0.118 | [8] 0.035 | [9] 0.085

MACF1, A0A5F9ZGX0
inactive: [7] -0.032 | [8] 0.024

MAGEA3 (UniProt P43357)
inactive: [10] 0.056 | [12] 0.065 | [6] -0.022 | [11] 0.059

MAGEF1 (UniProt Q9HAY2)
inactive: [13] -0.431 | [14] -0.424 | [15] -0.56 | [2] 0.242 | [4] -0.299 | [16] -0.019 | [17] -0.322 | [18] 0.07 | [19] -0.044 | [20] -0.244 | [9] 0.067

LY6D (UniProt Q14210)
inactive: [4] 0.628 | [9] 0.354

Taken from the listing (three entries):
LYL1 (UniProt P12980)
inactive: [1] 0.037 | [2] 0.106 | [10] -0.055 | [5] -0.032 | [7] 0.078 | [8] 0.028 | [11] 0.105

MAP3K8 (UniProt P41279)
inactive: [1] -0.086 | [4] -0.072 | [5] 0.002 | [7] -0.118 | [8] 0.035 | [9] 0.085

MACF1, A0A5F9ZGX0
inactive: [7] -0.032 | [8] 0.024

Going on with the list.

MAST3 (UniProt O60307)
inactive: [13] 0.026 | [14] -0.036 | [15] -0.02 | [2] 0.018 | [4] -0.1 | [16] 0.011 | [17] -0.021 | [18] 0.057 | [6] 0.054 | [19] -0.011 | [20] 0.052 | [9] 0.002

MAP3K4 isoform 2 (UniProt Q9Y6R4)
inactive: [10] -0.005 | [11] -0.004

MAGEA12 (UniProt P43365)
inactive: [10] -0.016 | [12] -0.068 | [6] -0.043 | [7] 0.16 | [8] -0.014 | [11] -0.04

MAPT isoform 7 (UniProt P10636)
inactive: [13] 0.035 | [10] -0.036 | [17] 0.081 | [12] -0.056 | [18] 0.042 | [19] -0.021 | [7] -0.071 | [8] -0.005 | [11] -0.028

MARCHF7 (UniProt Q9H992)
inactive: [4] -0.022 | [9] 0.02

MAGI1 (UniProt H7C4S7)
inactive: [4] 0.05 | [9] 0.074

MAP3K3 isoform 2 (UniProt Q99759)
inactive: [14] 0.015 | [15] 0.004 | [2] -0.051 | [3] -0.283 | [4] 0.119 | [10] -0.149 | [16] 0.052 | [12] -0.205 | [6] 0.3 | [20] -0.017 | [9] 0.072 | [11] -0.092

LTBP4 isoform 2 (UniProt Q8N2S1)
inactive: [10] -0.012 | [11] -0.021
